Literature values, collected in US20070197544A1, “ILOPROST IN COMBINATION THERAPIES FOR THE TREATMENT OF PULMONARY ARTERIAL HYPERTENSION” (CoTherix, Inc., priority 2003, published 2007).
For at least one compound, name, drawing or mass did not settle the structure.

Details: 20 mg, 12-week period, men with ED

For `CN1CC(=O)N2[C@H](c3ccc4c(c3)OCO4)c3[nH]c4ccccc4c3C[C@@H]2C1=O` [Cialis, Tadalafil], the “completed attempts for sexual intercourse” value is given as 64%, the “patients reporting improved erections (Global Assessment Question)” value is given as 79% and the “successful attempts at vaginal penetration (Sexual Encounter Profile diary)” value is given as 77%.
